In PMC9152703:
These are yes or no findings as the source states them, for the method shown. In cells and extracts the contact can be indirect. Sequences can lack the tags named with a protein. One block for each binder: values may come before it.

Assays:
[1] = molecular target: T1, PCDH19-V5 (full-length protocadherin-19 with V5 tag) (human) (UniProt Q8TAB3); assay: co-IP; HEK 293FT cells co-transfected, lysed in modified RIPA buffer; IP with anti-V5 (or control IgG) overnight at 4°C, protein A-agarose; blots probed for V5 or HA
T1 sequence: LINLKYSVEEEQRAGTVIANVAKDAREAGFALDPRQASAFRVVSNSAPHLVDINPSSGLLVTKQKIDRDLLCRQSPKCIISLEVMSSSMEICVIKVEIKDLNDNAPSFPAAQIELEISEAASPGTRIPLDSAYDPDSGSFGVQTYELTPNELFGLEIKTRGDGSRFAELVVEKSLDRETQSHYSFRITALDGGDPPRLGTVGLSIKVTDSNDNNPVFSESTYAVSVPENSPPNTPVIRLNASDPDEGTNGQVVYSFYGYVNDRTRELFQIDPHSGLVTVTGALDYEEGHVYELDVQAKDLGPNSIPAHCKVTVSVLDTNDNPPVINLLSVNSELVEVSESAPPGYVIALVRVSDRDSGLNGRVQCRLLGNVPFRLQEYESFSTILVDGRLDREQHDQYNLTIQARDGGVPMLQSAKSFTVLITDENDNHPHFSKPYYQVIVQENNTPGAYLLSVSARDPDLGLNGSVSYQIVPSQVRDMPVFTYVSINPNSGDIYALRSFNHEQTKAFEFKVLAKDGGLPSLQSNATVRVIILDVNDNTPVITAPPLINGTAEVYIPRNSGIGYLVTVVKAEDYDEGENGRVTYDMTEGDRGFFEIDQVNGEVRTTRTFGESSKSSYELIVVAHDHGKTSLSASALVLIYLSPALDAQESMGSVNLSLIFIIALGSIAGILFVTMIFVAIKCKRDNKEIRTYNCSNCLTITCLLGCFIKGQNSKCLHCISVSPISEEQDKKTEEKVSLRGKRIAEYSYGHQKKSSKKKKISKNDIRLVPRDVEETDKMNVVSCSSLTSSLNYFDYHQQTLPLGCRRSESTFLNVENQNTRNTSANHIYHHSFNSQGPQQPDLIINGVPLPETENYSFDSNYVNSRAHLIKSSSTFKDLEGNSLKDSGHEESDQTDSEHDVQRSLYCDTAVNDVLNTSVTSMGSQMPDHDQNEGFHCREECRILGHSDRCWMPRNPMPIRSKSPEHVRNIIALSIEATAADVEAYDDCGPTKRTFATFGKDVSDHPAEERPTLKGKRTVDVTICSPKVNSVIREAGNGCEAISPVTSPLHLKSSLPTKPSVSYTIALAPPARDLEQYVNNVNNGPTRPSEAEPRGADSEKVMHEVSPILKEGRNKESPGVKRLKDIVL

HA-NOVA1 = molecular target: T2, HA-NOVA1 (UniProt P51513); assay: co-IP; HEK cells co-transfected with CTF-V5 and HA-LSD1, HA-nLSD1 or HA-NOVA1, modified RIPA buffer; CTF-V5 co-immunoprecipitated by the HA-tagged proteins (Figure S4D)
T2 sequence: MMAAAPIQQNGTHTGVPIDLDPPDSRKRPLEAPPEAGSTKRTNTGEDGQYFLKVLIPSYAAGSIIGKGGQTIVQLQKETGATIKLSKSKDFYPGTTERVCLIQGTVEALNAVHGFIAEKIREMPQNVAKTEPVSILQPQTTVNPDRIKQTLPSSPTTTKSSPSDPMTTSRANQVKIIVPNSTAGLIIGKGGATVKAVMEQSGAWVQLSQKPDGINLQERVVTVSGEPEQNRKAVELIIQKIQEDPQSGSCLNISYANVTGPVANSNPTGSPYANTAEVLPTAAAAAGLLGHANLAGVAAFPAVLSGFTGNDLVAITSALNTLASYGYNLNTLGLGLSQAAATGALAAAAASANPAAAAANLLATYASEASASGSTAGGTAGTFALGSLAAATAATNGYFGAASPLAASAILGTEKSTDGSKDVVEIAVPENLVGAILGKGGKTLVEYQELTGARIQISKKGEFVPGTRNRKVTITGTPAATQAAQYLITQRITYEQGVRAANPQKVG

binding [1]: no binding
B1: HA-NOVA1 (protein, UniProt P51513 1-507)
chain: T2 sequence

binding (HA-NOVA1): no binding
B2: CTF-V5 (entire human PCDH19 C-terminal fragment with C-terminal V5 tag) (domain or fragment, UniProt Q8TAB3-1 700-1148)
chain: AIKCKRDNKEIRTYNCSNCLTITCLLGCFIKGQNSKCLHCISVSPISEEQDKKTEEKVSLRGKRIAEYSYGHQKKSSKKKKISKNDIRLVPRDVEETDKMNVVSCSSLTSSLNYFDYHQQTLPLGCRRSESTFLNVENQNTRNTSANHIYHHSFNSQGPQQPDLIINGVPLPETENYSFDSNYVNSRAHLIKSSSTFKDLEGNSLKDSGHEESDQTDSEHDVQRSLYCDTAVNDVLNTSVTSMGSQMPDHDQNEGFHCREECRILGHSDRCWMPRNPMPIRSKSPEHVRNIIALSIEATAADVEAYDDCGPTKRTFATFGKDVSDHPAEERPTLKGKRTVDVTICSPKVNSVIREAGNGCEAISPVTSPLHLKSSLPTKPSVSYTIALAPPARDLEQYVNNVNNGPTRPSEAEPRGADSEKVMHEVSPILKEGRNKESPGVKRLKDIVL
